## Results of single-concentration screens

Amino acid sequences for entries named in this document (tags omitted). Residues count along the entry.
UniProt Q4DA54, 1-478: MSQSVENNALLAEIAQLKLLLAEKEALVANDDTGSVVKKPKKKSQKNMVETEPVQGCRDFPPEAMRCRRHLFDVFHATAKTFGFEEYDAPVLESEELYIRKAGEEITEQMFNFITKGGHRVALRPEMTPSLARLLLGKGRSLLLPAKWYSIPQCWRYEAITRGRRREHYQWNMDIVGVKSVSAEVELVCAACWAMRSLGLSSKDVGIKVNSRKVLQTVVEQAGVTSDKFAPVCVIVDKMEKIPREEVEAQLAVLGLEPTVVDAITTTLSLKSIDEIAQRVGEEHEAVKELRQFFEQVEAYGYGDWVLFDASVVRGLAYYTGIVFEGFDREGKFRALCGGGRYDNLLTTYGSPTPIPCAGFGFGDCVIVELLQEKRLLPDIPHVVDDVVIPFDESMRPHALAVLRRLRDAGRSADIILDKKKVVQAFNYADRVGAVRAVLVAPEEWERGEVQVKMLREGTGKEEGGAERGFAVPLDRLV
UniProt P9WNZ1, whole entry: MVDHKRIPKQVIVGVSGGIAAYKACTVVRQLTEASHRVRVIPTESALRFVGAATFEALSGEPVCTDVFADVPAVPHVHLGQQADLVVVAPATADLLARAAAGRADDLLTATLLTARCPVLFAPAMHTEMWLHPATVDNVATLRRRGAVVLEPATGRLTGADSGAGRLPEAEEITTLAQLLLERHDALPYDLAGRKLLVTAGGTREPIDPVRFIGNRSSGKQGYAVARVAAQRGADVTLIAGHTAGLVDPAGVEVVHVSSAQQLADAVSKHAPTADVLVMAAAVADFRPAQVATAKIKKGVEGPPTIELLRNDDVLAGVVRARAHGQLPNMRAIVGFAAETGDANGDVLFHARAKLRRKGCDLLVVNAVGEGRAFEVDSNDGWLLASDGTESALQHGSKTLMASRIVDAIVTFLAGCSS
UniProt A4I591, 1-473: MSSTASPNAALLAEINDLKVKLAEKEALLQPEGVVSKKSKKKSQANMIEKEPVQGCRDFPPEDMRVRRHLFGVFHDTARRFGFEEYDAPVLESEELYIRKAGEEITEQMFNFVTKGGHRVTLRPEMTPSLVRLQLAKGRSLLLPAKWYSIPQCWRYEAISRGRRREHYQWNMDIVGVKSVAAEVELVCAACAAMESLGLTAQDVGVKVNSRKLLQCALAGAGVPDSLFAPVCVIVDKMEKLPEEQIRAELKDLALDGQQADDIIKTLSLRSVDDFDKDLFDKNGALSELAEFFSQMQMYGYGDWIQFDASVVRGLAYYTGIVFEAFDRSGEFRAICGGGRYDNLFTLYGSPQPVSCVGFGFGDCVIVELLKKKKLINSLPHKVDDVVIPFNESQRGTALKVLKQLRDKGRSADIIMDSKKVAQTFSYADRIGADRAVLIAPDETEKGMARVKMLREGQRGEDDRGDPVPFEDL

The values are deposited in ChEMBL (CHEMBL3988442, “University of Dundee, Small-Polar-MMV Screening Library” (2021)).

TcHisRS: 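Histidine-tRNA ligase, Trypanosoma cruzi CL Brener (UniProt Q4DA54). Enzyme assay of histidyl-tRNA synthetase; the read-out is not stated. Concentration: 30 µM. Direction is inferred from retests: higher values go with stronger inhibition. Of about 69,000 compounds tested this way, about 31 (0.045%) reached 50% or more in at least one test.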
Leishmania in macrophages: 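Cell assay of Leishmania donovani living inside macrophages; the read-out is not stated. Tested at 30 µM. Higher reads as stronger inhibition (inferred: compounds with an IC50 in retests scored well above the rest). About 69,000 compounds were tested under these conditions; 1.5% (about 1,000) showed 50% or more at least once.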
Toxoplasma: 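Assay of Toxoplasma gondii numbers, read through their beta-galactosidase reporter with a colour substrate. Tested at 10 µM. The record gives no direction; the compounds picked for IC50 retests had high values, so higher reads as fewer parasites. Of about 67,000 compounds tested this way, about 260 (0.38%) reached 50% or more in at least one test.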
CoaBC: 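Enzyme assay of CoaBC with a phosphate dye (Biomol Green) read at 650 nm. Target: Coenzyme A biosynthesis protein CoaBC, Mycobacterium tuberculosis (UniProt P9WNZ1). Tested at 30 µM. Higher reads as stronger inhibition, judged from the few compounds that gave an IC50. Most strong results did not repeat in a second test. Size under these conditions: about 67,000 compounds, about 40 of them at 50% or above in at least one test.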
LiHisRS: 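Histidine-tRNA ligase, Leishmania infantum (UniProt A4I591). Enzyme assay of histidyl-tRNA synthetase; the read-out is not stated. Compounds at 30 µM. The record gives no direction; compounds that gave an IC50 in retests scored well above the rest, so higher reads as stronger inhibition. The assay is labelled LdHisRS but filed under L. infantum. Size under these conditions: about 69,000 compounds, about 410 of them at 50% or above in at least one test.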

Values are the deposited “Percent Effect”, in %.
The record does not define 0% and 100%; most values in the screen are far below 50% and negative numbers occur (in some assays of this library far below -100).
Compounds were drawn at random from those tested, without regard to their results.
A dash means the value is not listed here; it may have been measured.

structure | TcHisRS | Leishmania in macrophages | Toxoplasma | CoaBC | LiHisRS
CC(C)NC(=O)Nc1nc2c(s1)CN(C(=O)NCc1cccs1)CC2 | 8.808 | -26.28 | 56.34 | -2.132 | 21.51
Cc1nc(CN2C(=O)CC3(CCN(C(N)=O)CC3)c3ccccc32)cs1.O=C(O)C(F)(F)F | - | 16.9 | 1.33 | - | -
CC(=O)Nc1nc(CN2CCn3c(nnc3C(C)C)C2)cs1 | 2.89 | 6.177 | 14.87 | 5.492 | 11.61
CC(C)c1nc(CN(C)C2CCN(CC(F)(F)F)C2)no1 (centres unmarked) | 0 | -0.2148 | -4.16 | -0.2132 | 17.31
O=C(c1ccccn1)N1CCCC(c2cc(C(F)F)n3ncnc3n2)C1 (centres unmarked) | -2.128 | -1.907 | 1.751 | -0.9804 | 5.208
CCC[C@H]1CN(Cc2ccc(N(C)C)nc2)C[C@@H]1NC(=O)CO | 4.865 | 11.21 | 16.36 | 0.8547 | 11.97
c1cnc(N2CCOCC3(CCCN(Cc4cccs4)C3)C2)nc1 (centres unmarked) | 9.804 | - | - | -0.5 | 0
CC1=C[C@@H](CN2CCCC2)[C@H](C(C)C)C[C@H]1Cc1nnc(C)o1 | 9.453 | 6.103 | 2.95 | 8.448 | 10.81
COc1cccc(NC(=O)Cn2cc(-c3ccccc3)ncc2=O)c1 | 7.273 | -14.83 | 3.832 | 1.533 | 18.18
OC(CN1CCN(Cc2cccnc2)CC1)c1cccs1 (centres unmarked) | 8.247 | - | - | -20.08 | 20.87
Cc1nn(C)c(C)c1C1CCCN1C(=O)Cc1cn2ccsc2n1 (centres unmarked) | 4.598 | 15.55 | 0.2268 | -6.4 | 7.692
Cc1nn(C)c2cnn(Cc3ccc(C(=O)NCC4CCCO4)o3)c12 (centres unmarked) | 1.327 | 8.001 | 7.594 | -2.804 | 15.04
O=C(O)C(F)(F)F.[H][C@@]12CN(Cc3ccccn3)C[C@]1([H])CN(C(=O)Cc1ccc(OC)cc1)C2 | - | 0.9605 | 14.09 | - | -
Cc1cccc(CN2Cc3nccn3CC(CN3CCOCC3)C2)c1 (centres unmarked) | 17.65 | - | - | -37.53 | 30.28
CC(C)c1nnc2n1CCN(C(=O)c1cccc(C(F)(F)F)c1)C2 | 4.906 | -22.94 | 10.99 | 4.824 | -4.054
COc1cccc(OCC2CCCN(c3cc(C(N)=O)ccn3)C2)c1 (centres unmarked) | 11.52 | 42.88 | -3.611 | 3.406 | 11.11
CN(Cc1noc(C2CC2)n1)C1CCN(CCS(C)(=O)=O)C1 (centres unmarked) | 1.729 | -35.56 | 0.4614 | -0.2273 | 10.71
Cc1cc(C)n(C2CCN(S(C)(=O)=O)CC2)n1 | 1.916 | -8.348 | 3.095 | 3.155 | 1.429
O=C(O)C(F)(F)F.O=C(O)C(F)(F)F.[H][C@@]12C[C@@H](Oc3ccc(C)cc3)CN1CCN(c1ncc(F)cn1)C2 | - | -14.63 | -3.305 | - | -
CC(C)(CN1CCCC1)CN1CCC(Cn2cc(C3CC3)nn2)CC1 | 0 | 39.97 | -35.49 | 1.863 | 7.5
Cc1nc(CN(Cc2ccncc2)C2CCN(C)CC2)cs1 | 3.627 | 21.78 | 5.62 | 14.93 | 8.602
Cc1noc(C)c1CN(C)C(=O)C1(N)CCCCC1 | 5.882 | 8.591 | 10.54 | -0.7371 | 10.32
CC(C)(C)c1n[nH]c(C2CN(C(=O)CCc3ccco3)CCO2)n1 (centres unmarked) | 7.647 | 17.97 | -10.37 | 1.535 | 12.84
CN1CCC(N(C)C(=O)c2cnc3c(cnn3C3CCCC3)c2)CC1 | 2.326 | 37.86 | -4.606 | 14.25 | 8.929
CCOc1ccc(NC(=O)N(C)Cc2cnn(C)c2)c(C)c1 | 0.2907 | 28.5 | 19.02 | -5.937 | 9.649
CN(CCc1ccccn1)C(=O)CCC1CCCN(c2cnccn2)C1 (centres unmarked) | -0.8 | 23.4 | 0.0575 | 7.856 | 2.655
Cc1nn(C)c(Cl)c1S(=O)(=O)N(CC(N)=O)CC(C)C | 8.434 | -9.095 | -18.77 | 3.218 | 6
CCn1cc(CN2CCC(CNC(C)=O)CC2)cc1C#N | 6.329 | 11.61 | 1.617 | -0.7212 | 8.333
Cc1ccc(CNc2n[nH]c(C)n2)cc1 | 6.931 | 6.372 | -8.394 | -1.456 | 19.05
COc1ccc(-n2ncc(C(C)NCc3cnc(SC)nc3)c2C)cc1 (centres unmarked) | -8.696 | 4.568 | -54.56 | 0.3727 | 2.5

The last 3 entries again:

| structure | TcHisRS | Leishmania in macrophages | Toxoplasma | CoaBC | LiHisRS |
|---|---|---|---|---|---|
| `CCn1cc(CN2CCC(CNC(C)=O)CC2)cc1C#N` | 6.329 | 11.61 | 1.617 | -0.7212 | 8.333 |
| `Cc1ccc(CNc2n[nH]c(C)n2)cc1` | 6.931 | 6.372 | -8.394 | -1.456 | 19.05 |
| `COc1ccc(-n2ncc(C(C)NCc3cnc(SC)nc3)c2C)cc1` (centres unmarked) | -8.696 | 4.568 | -54.56 | 0.3727 | 2.5 |